Source: publication PMC11050535

Target: McHB7-FLAG (Homeobox 7 transcription factor of the ice plant) (Mesembryanthemum crystallinum)
Test: affinity purification with mass spectrometry; McHB7-FLAG as bait; extract of infiltrated ice plant leaves (150 mM NaCl, 50 mM Tris-HCl pH 8.0, 1 mM EDTA, 1% Triton X-100) on anti-FLAG M2 resin, 4 °C, 2 h; eluted with 3xFLAG peptide; LC-MS/MS; WT leaves as control

binding: binds
B1: delta-1-pyrroline-5-carboxylate synthetase (O65361) (protein, UniProt O65361 1-719)
chain: MDATRAFVKDVKRVVVKVGTAVVTRSDGRLALGRLGSLCEQLKELNSDGYEVILVTSGAVSAGRQRLRFRKLVNSSFADLQKPQVELDGKACAAVGQNGLMALYDTLFSQLDLTAAQLLVTDNDFRDPSFRTQLTETVYQLLDLKVVPVLNENDAVSTRKAPYEDSSGIFWDNDSLAALLALELKADLLILLSDVDGLYNGPPSDPRSKLISTYVKEKHQGEITFGDKSRLGRGGMTAKVKAAVYAAYAGIPVIIASGKATDNIIKVIDGQCVGTLFHKDAHLWVQVKETGVRDMAVAARESSRRLQAVSSEERKKILLDIADALEANEEKILAENEADVAAAQYAGYDRSLVARLAMNPDKISSLAKSIRVLADMEEPIGRILKRTEIADGLILEKTSCPLGVLLIVFESRPDALVQIASLAIRSGNGLLLKGGKEAKRSNAILHKVITSAIPDKVGEKLIGLVTSRDEIPDLLKLDDVIDLVIPRGSNKLVSQIKESTRIPVLGHADGICHVYVDKSANMDMAKRIVLDAKTDYPAACNAMETLLVHKDLAENGGLNDLIVDLRTEGVTMFGGPRIDALQEFNIQATQTFNREYSSPACTVEIVDDVYAAIEHINHHGSAHTDCIIAEDHKVAETFLQLVDSAAVLHNASTRFCDGFRFGLGAEVGISTSRIHARGPVGVEGLLTTRWVLKGSGQVVHGDKGVVYTHKDLPLVAQNS

These are yes or no findings as the source states them, for the method shown. In cells and extracts the contact can be indirect. A yes stands for co-enrichment or nearness to the bait. Other partners may have been found.
